Values from PubChem BioAssay AID1259254 (NCATS, 2017).
This is a random part of about 59,000 reagents. Over the whole deposit, about 1,550 (2.6%) got an active call. 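G2 share is only a proxy for re-replication; each gene was hit by three separate siRNAs, and active genes were retested.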 Raw values are not corrected between plates. Unmarked entries are inactive. The numbers tell different reagents against one gene apart. No sequences are given here. The record does not give: the amount of reagent.

Aim: 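Genome-wide screen for genes that prevent DNA re-replication in cancer cells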 (primary screen)
Cell system: human HCT116 colorectal cancer cells
Reagent: single siRNA against human genes
Duration: 3 days
Read-out: 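Imaged Hoechst DNA stain sorts each cell into a cycle phase by DNA amount; per plate, G2 fraction set to 0% for non-targeting and 100% for GMNN siRNA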
Scale: G2 robust z-score and G2 cells, % of GMNN control: higher = more G2 cells, more excess DNA replication; raw share of cells in G2: higher = larger share of cells with G2 DNA content
Rule for the call: 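Active siRNAs have a G2 robust z of 5 or more median absolute deviations over the median, which in these data means about 38% or higher of GMNN control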

gene knocked down	reagent no.	G2 robust z-score	G2 cells, % of GMNN control	raw share of cells in G2 (%)
DTX4 (GeneID 23220)	1	-0.678	-1.8	2.93
DTX4 (GeneID 23220)	2	-0.836	-2.92	4.69
DTX4 (GeneID 23220)	3	2.69	21.9	12.5
RAC2 (GeneID 5880)	1	3.55	27.9	14.6
RAC2 (GeneID 5880)	2	-0.707	-2.01	3.91
RAC2 (GeneID 5880)	3	0.36	5.5	5.97
CCDC154 (GeneID 645811)	1	0.951	9.66	7.42
CCDC154 (GeneID 645811)	2	-0.00467	2.93	4.31
CCDC154 (GeneID 645811)	3	-0.443	-0.151	3
LVRN (GeneID 206338)	1	0.347	5.41	7.88
LVRN (GeneID 206338)	2	2.11	17.8	10.3
LVRN (GeneID 206338)	3	-0.237	1.3	4.75
FKBP2 (GeneID 2286)	1	2.99	24	14.4
FKBP2 (GeneID 2286)	2	4.95	37.8	17.1
FKBP2 (GeneID 2286)	3	-0.293	0.902	5.56
TTC9B (GeneID 148014)	1	0.631	7.41	9.49
TTC9B (GeneID 148014)	2	3.11	24.8	13.8
TTC9B (GeneID 148014)	3	-0.0118	2.88	5.91

Continued (2 carried over from the part before).
gene knocked down	reagent no.	G2 robust z-score	G2 cells, % of GMNN control	raw share of cells in G2 (%)
TTC9B (GeneID 148014)	2	3.11	24.8	13.8
TTC9B (GeneID 148014)	3	-0.0118	2.88	5.91
CDK5RAP2 (GeneID 55755)	1	-0.145	1.95	5.27
CDK5RAP2 (GeneID 55755)	2	-0.782	-2.53	3.09
CDK5RAP2 (GeneID 55755)	3	-0.291	0.917	3.43
GET3 (GeneID 439)	1	0.522	6.64	6.95
GET3 (GeneID 439)	2	-0.15	1.91	4.88
GET3 (GeneID 439)	3	-0.193	1.61	3.98
MDGA1 (GeneID 266727)	1	1	10	7.3
MDGA1 (GeneID 266727)	2	0.171	4.17	4.66
MDGA1 (GeneID 266727)	3	0.506	6.53	5.25
PHGR1 (GeneID 644844)	1	1.05	10.4	7
PHGR1 (GeneID 644844)	2	-0.548	-0.888	2.89
PHGR1 (GeneID 644844)	3	0.233	4.61	5.39
